Source: article PMC10515036
These are yes or no findings as the source states them, for the method shown. In cells and extracts the contact can be indirect. Some entries that bind do so weakly or less than the wild type.

Protein sequences, listed by entry. Tags and fused reporters are not part of them.
UniProt P59941: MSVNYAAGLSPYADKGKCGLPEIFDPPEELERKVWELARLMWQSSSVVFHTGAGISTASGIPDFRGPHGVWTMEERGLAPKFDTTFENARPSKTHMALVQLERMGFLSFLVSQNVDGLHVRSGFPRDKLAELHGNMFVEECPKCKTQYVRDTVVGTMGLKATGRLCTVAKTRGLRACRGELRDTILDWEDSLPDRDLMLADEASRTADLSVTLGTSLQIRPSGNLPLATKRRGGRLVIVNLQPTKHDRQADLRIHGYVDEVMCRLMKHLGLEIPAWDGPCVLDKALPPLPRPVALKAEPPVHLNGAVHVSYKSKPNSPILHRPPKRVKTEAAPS
UniProt Q91ZW3: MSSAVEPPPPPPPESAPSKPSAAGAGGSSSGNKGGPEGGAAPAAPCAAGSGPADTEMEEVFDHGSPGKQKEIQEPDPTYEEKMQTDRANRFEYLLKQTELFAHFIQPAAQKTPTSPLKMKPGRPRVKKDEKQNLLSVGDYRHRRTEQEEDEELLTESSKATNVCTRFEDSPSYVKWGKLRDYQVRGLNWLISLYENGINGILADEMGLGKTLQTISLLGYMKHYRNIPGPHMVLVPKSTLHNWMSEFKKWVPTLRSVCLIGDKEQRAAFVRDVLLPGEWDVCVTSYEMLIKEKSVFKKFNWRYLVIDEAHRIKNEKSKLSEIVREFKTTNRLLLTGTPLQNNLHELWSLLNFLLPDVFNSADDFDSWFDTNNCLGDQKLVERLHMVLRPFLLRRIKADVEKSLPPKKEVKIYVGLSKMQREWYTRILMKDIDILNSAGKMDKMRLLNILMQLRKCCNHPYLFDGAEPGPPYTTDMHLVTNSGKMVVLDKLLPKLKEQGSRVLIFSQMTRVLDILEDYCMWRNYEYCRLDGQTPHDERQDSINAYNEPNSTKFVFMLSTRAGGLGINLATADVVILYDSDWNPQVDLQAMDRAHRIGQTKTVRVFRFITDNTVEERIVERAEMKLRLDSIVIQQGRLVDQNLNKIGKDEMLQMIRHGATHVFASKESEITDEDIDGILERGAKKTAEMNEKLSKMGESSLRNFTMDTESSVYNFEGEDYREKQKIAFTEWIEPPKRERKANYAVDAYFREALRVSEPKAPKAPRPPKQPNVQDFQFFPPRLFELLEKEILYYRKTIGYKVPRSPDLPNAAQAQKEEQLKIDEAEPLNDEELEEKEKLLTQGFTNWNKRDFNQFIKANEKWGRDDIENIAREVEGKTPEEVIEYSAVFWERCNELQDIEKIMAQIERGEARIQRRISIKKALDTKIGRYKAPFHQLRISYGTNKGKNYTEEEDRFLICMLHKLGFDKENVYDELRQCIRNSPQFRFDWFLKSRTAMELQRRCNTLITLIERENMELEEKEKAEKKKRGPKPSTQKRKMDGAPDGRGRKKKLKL

Target: Sirt6 (mouse (endogenous in RAW264.7)) (UniProt P59941)
Assay: co-IP; lysate of macrophages treated with Ac-LDL; immunoprecipitation with SNF2H or Sirt6 antibody, Western blot for the other protein; control IgG as negative control; Proteintech Immunoprecipitation Kit KIP-2

ISWI-chromatin remodeler SNF2H (from UniProt Q91ZW3 1-1051)
binding: binds
